Data published in publication PMC11977240.
No constants are given. Whether binding was seen depends on the method and setting. Binding seen in cells or lysates may run through a third protein. Binding can be weak; no strength is given.

Chains of the proteins cited; added tags and fusions are not shown. Lines headed by an entry give the natural chain unless they say otherwise; changes in a name come on top.
UniProt Q00839: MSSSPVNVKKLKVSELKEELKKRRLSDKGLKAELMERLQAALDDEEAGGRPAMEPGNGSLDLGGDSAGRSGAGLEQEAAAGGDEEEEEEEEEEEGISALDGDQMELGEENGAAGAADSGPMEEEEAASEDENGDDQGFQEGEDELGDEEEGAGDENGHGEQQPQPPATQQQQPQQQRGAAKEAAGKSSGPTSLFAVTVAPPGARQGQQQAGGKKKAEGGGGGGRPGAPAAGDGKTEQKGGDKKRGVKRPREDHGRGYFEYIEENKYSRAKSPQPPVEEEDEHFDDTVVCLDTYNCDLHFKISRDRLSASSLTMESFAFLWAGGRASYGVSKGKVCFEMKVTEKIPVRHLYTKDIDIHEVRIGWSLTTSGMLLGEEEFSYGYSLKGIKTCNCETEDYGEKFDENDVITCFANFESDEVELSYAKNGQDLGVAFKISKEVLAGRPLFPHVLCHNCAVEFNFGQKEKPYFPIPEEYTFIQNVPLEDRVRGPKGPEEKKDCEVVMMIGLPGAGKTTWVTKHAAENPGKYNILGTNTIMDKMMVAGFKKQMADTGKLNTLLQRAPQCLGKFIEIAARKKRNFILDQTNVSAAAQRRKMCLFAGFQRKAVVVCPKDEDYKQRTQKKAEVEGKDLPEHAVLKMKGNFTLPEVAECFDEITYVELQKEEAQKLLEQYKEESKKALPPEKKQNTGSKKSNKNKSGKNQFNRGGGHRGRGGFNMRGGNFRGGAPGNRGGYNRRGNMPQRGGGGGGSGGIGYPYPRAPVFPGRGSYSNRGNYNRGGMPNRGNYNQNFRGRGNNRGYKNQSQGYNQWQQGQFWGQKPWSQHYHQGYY
UniProt O00571: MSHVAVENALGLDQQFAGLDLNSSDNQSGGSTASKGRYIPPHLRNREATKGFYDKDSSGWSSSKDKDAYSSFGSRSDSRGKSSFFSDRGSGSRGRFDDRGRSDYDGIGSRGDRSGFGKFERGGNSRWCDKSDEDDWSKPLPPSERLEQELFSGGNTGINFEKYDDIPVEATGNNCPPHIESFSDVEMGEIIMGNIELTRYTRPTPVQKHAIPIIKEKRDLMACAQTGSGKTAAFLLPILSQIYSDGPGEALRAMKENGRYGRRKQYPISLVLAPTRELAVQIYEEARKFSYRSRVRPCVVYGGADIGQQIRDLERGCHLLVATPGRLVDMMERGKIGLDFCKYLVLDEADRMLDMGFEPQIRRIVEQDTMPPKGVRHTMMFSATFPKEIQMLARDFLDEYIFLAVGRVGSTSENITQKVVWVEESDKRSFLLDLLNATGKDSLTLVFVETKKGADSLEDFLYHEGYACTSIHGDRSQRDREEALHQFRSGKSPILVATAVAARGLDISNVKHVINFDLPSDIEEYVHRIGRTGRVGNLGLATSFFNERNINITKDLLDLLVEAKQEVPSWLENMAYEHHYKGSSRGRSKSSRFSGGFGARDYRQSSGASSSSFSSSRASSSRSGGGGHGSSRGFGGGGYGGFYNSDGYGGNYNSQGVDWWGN

Target: hnRNP U ΔRBD-Flag (UniProt Q00839)
Assay: co-IP; IP with the Flag antibody from cytoplasmic extracts of HCT116 cells transfected with flag-tagged hnRNP U WT, ΔRBD or empty vector, western blot

binding: binds
Substance: DDX3X (from UniProt O00571 1-662)
